From publication PMC7819943, “Rice protein-binding microarrays: a tool to detect cis-acting elements near promoter regions in rice”
The other results are listed elsewhere or left out.

Amino acid sequences for entries named in this document (tags omitted).
UniProt Q0JBA9, entry or part of it: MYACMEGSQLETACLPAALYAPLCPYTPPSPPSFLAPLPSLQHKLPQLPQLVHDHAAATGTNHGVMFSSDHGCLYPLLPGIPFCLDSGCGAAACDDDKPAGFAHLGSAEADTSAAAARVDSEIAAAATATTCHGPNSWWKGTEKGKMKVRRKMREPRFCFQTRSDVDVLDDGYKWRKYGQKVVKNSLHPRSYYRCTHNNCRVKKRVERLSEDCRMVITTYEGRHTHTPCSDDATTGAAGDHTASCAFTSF

The sequences below were run against OsWRKY34 (Oryza sativa, UniProt Q0JBA9 1-250) (assay: protein-binding microarray (RPBM); PBS, 2% BSA, 51.3 ng/ul salmon testes DNA, 50 uM zinc acetate, 200 nM TF, 25 C, 1 h; high values mean tight binding). Conditions: protein: recombinant; tags: N-terminal polyhistidine and DsRed monomer fusion (pET32a); label: CyDye5-dUTP incorporated in the synthesized complementary strand; 3' TTTTT single-stranded linker to array surface; dsDNA, one strand shown.
In short: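 Polyhistidine-tagged DsRed fusions of transcription factors, joined at the N-terminus, were expressed in E. coli BL21-CodonPlus and isolated on Ni–NTA. They were incubated at 200 nM for 1 h at 25 °C on a custom Agilent array, double-stranded and BSA-blocked, in PBS with 2% BSA, salmon testes DNA and 50 µM zinc acetate. The binding signal is per-feature fluorescence intensity (arbitrary units) read on an Axon 4000B scanner after washing.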

| Sequence | binding signal |
| --- | --- |
| TCATTTGTCATCCATAAGTTTATATTTTGTACTTTTAGTTCGGAGTCACCTAGTGCAG | 8550 fluorescence intensity (a.u.) |
| TTTTTATTTTTTTCCACATTTTATCCTATTTGTACCATATCGGAGTCACCTAGTGCAG | 8900 fluorescence intensity (a.u.) |
| GATTCTCCCTTTCTCCCTTATCATTTTTGCCATGATTTTTCGGAGTCACCTAGTGCAG | 8760 fluorescence intensity (a.u.) |
| AGCTCCTATATTTTGTATACGACAGCAAGCAGCGACCGATCGGAGTCACCTAGTGCAG | 8240 fluorescence intensity (a.u.) |
| GCATTTCCGTCCCCGTTCCCGTTCCCGTTCCCGTTTGGGTCGGAGTCACCTAGTGCAG | 8290 fluorescence intensity (a.u.) |
| TTGGATGGATGGGATCACCTTGCATTTTCGCTCTACTTCACGGAGTCACCTAGTGCAG | 8580 fluorescence intensity (a.u.) |
| CACCGTCTCCGCCTCCGCCCTCGGCGTCGACCCCACCACCCGGAGTCACCTAGTGCAG | 8670 fluorescence intensity (a.u.) |
| AGTTATTTCTAGATTGTATTCCTATATGGACTCTTCTTTTCGGAGTCACCTAGTGCAG | 8560 fluorescence intensity (a.u.) |
| GGCTTGATTTATTGATTTGTTCTTTAGTACTCCAGTTCAACGGAGTCACCTAGTGCAG | 8620 fluorescence intensity (a.u.) |
| TGGTTTTATAGGCGTGGGGTGTGGAGCTTCGAGGGGAAGGCGGAGTCACCTAGTGCAG | 13900 fluorescence intensity (a.u.) |
| TTTCCCAGTTTCTCTATATTCTCATTAGCTGTTTCTTTCTCGGAGTCACCTAGTGCAG | 9450 fluorescence intensity (a.u.) |
| GCGTAACTTACTTTGTATTGTCCTCATGCAGAAGGCCTTCCGGAGTCACCTAGTGCAG | 9600 fluorescence intensity (a.u.) |
| CCGTTGCAGAAAGCCTTTGCTCTCTTCTTGCTTTCCTCAACGGAGTCACCTAGTGCAG | 10300 fluorescence intensity (a.u.) |
| ATGTCAATTTTCTCGCGTCCGTCCTATCTCTCGTGTTTTACGGAGTCACCTAGTGCAG | 12000 fluorescence intensity (a.u.) |
| ATGAAACTTGTAGGACCACTTTGCCTATTCACCCAAATTACGGAGTCACCTAGTGCAG | 9080 fluorescence intensity (a.u.) |
| ATCATATAGTCCCATACCGCCCGCCTAGTCTCATTGGAAACGGAGTCACCTAGTGCAG | 13400 fluorescence intensity (a.u.) |
| GGTTTGGTGAACTGTGTATAATGGAGATGGGGTGGGTTGGCGGAGTCACCTAGTGCAG | 13400 fluorescence intensity (a.u.) |
| CTTCTCTTTATCTCAGCGATGGGCGGGCAGCGTGCGAGCACGGAGTCACCTAGTGCAG | 12800 fluorescence intensity (a.u.) |
| TCGCCATGATTGATCTGATTGCCTACTTAAATTACATTTCCGGAGTCACCTAGTGCAG | 8590 fluorescence intensity (a.u.) |
| CTTGTCGTTTCCATGTAGAACTCTGGTTGTCTTTCCTTATCGGAGTCACCTAGTGCAG | 10600 fluorescence intensity (a.u.) |
| GTGGACAAGGACTGGGGTGCTGGGTCATCAGATGATTTGACGGAGTCACCTAGTGCAG | 8470 fluorescence intensity (a.u.) |
| CTCCTTTTTCTCTCTCTGATGAATGGTCTCTTTAATTTTACGGAGTCACCTAGTGCAG | 8300 fluorescence intensity (a.u.) |
| ACTCACATACACACACACTCGATCTTGTGCCTCTGCAGCACGGAGTCACCTAGTGCAG | 8240 fluorescence intensity (a.u.) |

2 records picked at random from those above, as already listed:

| Sequence | binding signal |
| --- | --- |
| TTGGATGGATGGGATCACCTTGCATTTTCGCTCTACTTCACGGAGTCACCTAGTGCAG | 8580 fluorescence intensity (a.u.) |
| CTTGTCGTTTCCATGTAGAACTCTGGTTGTCTTTCCTTATCGGAGTCACCTAGTGCAG | 10600 fluorescence intensity (a.u.) |
